Binding data for five molecules are collected here from publication PMC8783446.

No constants are given. Whether binding was seen depends on the method and setting. In cells and extracts the contact can be indirect. Here binding means that the protein was enriched with, or labelled near, the bait; the list need not be complete.

In this assay the target is T1, γ-sarcoglycan (Sgcg), endogenous in mouse muscle (mouse (endogenous in gastrocnemius muscle)) (UniProt P82348).
T1 sequence: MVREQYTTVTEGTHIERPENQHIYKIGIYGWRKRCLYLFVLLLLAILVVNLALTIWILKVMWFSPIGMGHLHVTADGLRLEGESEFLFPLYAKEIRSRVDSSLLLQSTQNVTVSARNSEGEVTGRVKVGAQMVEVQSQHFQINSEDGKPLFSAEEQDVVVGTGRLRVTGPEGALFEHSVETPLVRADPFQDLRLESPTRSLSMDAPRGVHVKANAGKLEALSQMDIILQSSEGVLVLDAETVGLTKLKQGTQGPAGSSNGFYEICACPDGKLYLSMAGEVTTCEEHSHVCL
Nature of the assay: affinity purification with mass spectrometry; anti-Sgcg cross-linked to Protein A Dynabeads; RIPA1 extract (1% IGEPAL CA-630, 0.5% deoxycholate, 0.1% SDS) of the cytoskeleton-associated fraction of mouse gastrocnemius muscle (WT, Svil-/-); controls Sgcg-/- muscle and rabbit IgG; 2 h at 4 °C; LC-MS/MS, triplicates.

B1: PUR6 (protein, UniProt Q9DCL9 1-425)
chain: MATAVVVNIGKKLYEGKTKEVYELLDTPGRVLLQSKDQITAGNAARKNHLEGKAAISNKITSCIFQLLQEAGIKTAFTKKCGETAFIAPQCEMIPIEWVCRRIATGSFLKRNPGVQEGYKFYPPKVEMFFKDDANNDPQWSEEQLIAAKFCFAGLVIGQTEVDIMSHATQAIFEILEKSWLPQDCTLVDMKIEFGVDVTTKEIVLADVIDNDSWRLWPSGDRSQQKDKQSYRDLKEVTPEGLQMVKKNFEWVADRVELLLKSDSQCRVVVLMGSTSDLGHCEKIKKACGNFGIPCELRVTSAHKGPDETLRIKAEYEGDGIPTVFVSVAGRSNGLGPVLSGNTAYPVISCPPITPDWGAQDVWSSLRLPSGIGCSTILSPEGSAQFAAQIFGLNNHLVWAKLRASILNTWISLKQADKKVRQCNL
Turning to B1, the binding result is on record as “binds”.

B2: Prdx3 (protein, UniProt P20108 63-257)
chain: TPAVTQHAPYFKGTAVVNGEFKELSLDDFKGKYLVLFFYPLDFTFVCPTEIVAFSDKANEFHDVNCEVVAVSVDSHFSHLAWINTPRKNGGLGHMNITLLSDITKQISRDYGVLLESAGIALRGLFIIDPNGVVKHLSVNDLPVGRSVEETLRLVKAFQFVETHGEVCPANWTPESPTIKPSPTASKEYFEKVHQ
B2: the binding entry is listed as “binds”.

B3: PURA (protein, UniProt P42669 1-321)
chain: MADRDSGSEQGGAALGSGGSLGHPGSGSGSGGGGGGGGGGGGSGGGGGAPGGLQHETQELASKRVDIQNKRFYLDVKQNAKGRFLKIAEVGAGGNKSRLTLSMSVAVEFRDYLGDFIEHYAQLGPSQPPDLAQAQDEPRRALKSEFLVRENRKYYMDLKENQRGRFLRIRQTVNRGPGLGSTQGQTIALPAQGLIEFRDALAKLIDDYGVEEEPAELPEGTSLTVDNKRFFFDVGSNKYGVFMRVSEVKPTYRNSITVPYKVWAKFGHTFCKYSEEMKKIQEKQREKRAACEQLHQQQQQQQEETTAATLLLQGEEEGEED
As to B3, the binding result is listed as “binds”.

B4: MYPT2 (myosin phosphatase target subunit 2 / protein phosphatase 1 regulatory subunit 12B) (protein, UniProt Q8BG95 1-976)
chain: MAELEHLGGKRAESARARRAEQLRRWRGSLTEQEPAERQGAGRQLQTRRGSPRVRFEDGAVFLAACSSGDTDEVKKLLARGADINTVNVDGLTALHQACIDENLDMVKFLVENRANVNQQDNEGWTPLHAAASCGYLNIAEYFISHGASVGIVNSEGEVPSDLAEEPAMKDLLLEQVKKQGVDLEQSRKEEEQQMLQDARQWLNSGRIEDVRQARSGATALHVAAAKGYSEVLRLLIQAGYELNVQDHDGWTPLHAAAHWGVKEACSILAEALCDMDIRNKLGQTPFDVADEGLVEHLEMLQKKQDVLRSEKETRNKLIESDLNSKFQSGLFKNKEKMLYEEEIPKSQDTEEENKESSSSSSEEEEGEDEVSESETEKEADKKPEATVNHSNSEIKSRIMEQIPAPAQNTFSASSARRLSSLFNKAEEPKDESPSSWRLGLRKTGSHNMLSEVANSREALRDRGSSIYRSSSSPRISALLDDKDKERENKSYFSMLVPRRLSSTSDIEEKENRESAVNLVRSGSHTRQLWRDEAKGSETPQTIAPSTYTSTYLKRTPYKSQADSTAEKTADSVSSSTPLCVITNRPAPSTANGVPAATVFSSAGTDPSVEAREKRRSYLTPVRDEEAESLRKARSRQARQTRRSTQGVTLTDLQEAEKTFSRSRAERQAQEQPGEKLEDPGGLEGSTKKQEPSAAPTKGAGEGRSLEEEPIYHRLRYPTQPDKPTTPVSPSASRPSLYTGSHLLRTSRASGPDSENSETSTHATAAKEMDTSEKGEADLDDQSSNRLSVRERRRAKDRRRGTGINFWTNDEDETDVSEEVKEALHERLSRLESGGTNPTSSDSYSDRASARARREAREARLASLTSRVEEDSNRDYKKLYESALTENQKLKTKLQEAQLELADIKAKLEKMAQQKQEKTSDRSSVLEVEKRERRALERKMSEMEEEMKVLTELKSDNQRLKDENGALIRVISKLSK
Regarding B4, the binding entry was “binds”.

B5: Palladin (protein, UniProt Q9ET54 1-1408)
chain: MSETSSHDSFYDSLSDVQEEGKSADFFPGLSAFLSQEEINKSLDLARRAIDSSETEDFDSEKEISQIFSKSPISLCETPSHEEPKSGKQTSSERPQDSRRAPVQPLTGDQAERITSPGSKRKPGVSPLLASPSYIRSLRKAEKRGAKNPNPSSKPKTAQQSKAGPQSQLCDKAASFIEELTSIFREAAKPRNRSPNGESSSPDSGYLSPKNQPSALMSASASQSPTADQLDQLEMDAEVKQAQGSLCYQAHQASEETLPLAHIPHPQPQKARHLPTAPRFIQKLRSQEVAEGSRVYLECRVTGNPTPRVRWFCEGKELYNSPDVQIHCESGELHTLVIAEAFEDDTGRYTCLATNPSGSDSTSAEVFIEGASSTDSDSESLSFISKAGAMPQAQKKTTSVSLTIGSSAPKTGVTTAVIQPLSVPVQQAHSATSYLCRPDGTTMGCLLPVFTKELQNTAASEGQVVVLECRVRGAPPLQVQWFRQGSEIQDSPDFRILQKKPRSTAEPEEICTLVIAESFPEDAGIFTCSATNDYGSVTSTAQLVITSANNENCSYDSTGEPNSDHFQHFPPPPPILETGSYELASQKPSEIQQVNSPNLGFSMAALQMQFNTAERETNGVHPSHGVNGLINGKAYGNKSPPTPTALLSPTKEPPPLLAKPKLDPLKLQQLQNQVRLEQEACAWPPAPPGVPCNSSSSGSSAPPSPPFPPPPPAFPELAACASPVPSEPMSALASRATAMQSSGSFNYARPKQFIAAQNLGPASGLPTPTSSPSSSSLPSPLSPTPRPFGRAPGPPFVEPEAMWGPSSPSPPPPPPPVFSPSAAYPVPDVFPLPPPPPPLPSSTSHCASPARFGPSQTPAAFLSALLPSQPPPVAVNALGLPKGVTPAGFPKKSSRTARIASDEEIQGTKDAVIQDLERKLRFKEDLLNNGQPRLTYEERMARRLLGADSANVFNIQEPEETAANQDAGAPRASVGGPLDGQKEYKVSSCEQRLISEIEYRLERSPVDESGDEVQDPDVPVENATAPFFEMKLKHYKIFEGMPVTFTCRVAGNPKPKIYWFKDGKQISPKSDHYTIQRDLDGTCSLHTTASTLDDDGNYTIMAANPQGRVSCTGRLMVQAVNQRGRSPRSPSGHPHARRPRSRSRDSGDENEPIQERFFRPHFLQAPGDLTVQEGKLCRMDCKVSGLPTPDLSWQLDGKPIRPDSAHKMLVRENGVHSLIIEPVTSRDAGIYTCIATNRAGQNSFNLELVVAAKEAHKAPVFMEKLQNTGVADGYPVRLECRVSGVPPPQIFWKKENESLTHSTERVSMHQDNHGYICLLIQGATKEDAGWYTVSAKNEAGIVSCTARLDVYTQWHQQPQTTKPKKVRPSASRYAALSDQGLDIKAAFQPEASPSHLTLNSGLVESEDL
B5: the binding result was “binds”.
